Results are given in words; binding and its absence hold for the method and conditions named. Binding seen in cells or lysates may run through a third protein. Some results given as binding are weak or reduced against the parent protein; the word gives no strength.

Amino acid sequences for entries named in this document (tags omitted).
UniProt Q9UER7: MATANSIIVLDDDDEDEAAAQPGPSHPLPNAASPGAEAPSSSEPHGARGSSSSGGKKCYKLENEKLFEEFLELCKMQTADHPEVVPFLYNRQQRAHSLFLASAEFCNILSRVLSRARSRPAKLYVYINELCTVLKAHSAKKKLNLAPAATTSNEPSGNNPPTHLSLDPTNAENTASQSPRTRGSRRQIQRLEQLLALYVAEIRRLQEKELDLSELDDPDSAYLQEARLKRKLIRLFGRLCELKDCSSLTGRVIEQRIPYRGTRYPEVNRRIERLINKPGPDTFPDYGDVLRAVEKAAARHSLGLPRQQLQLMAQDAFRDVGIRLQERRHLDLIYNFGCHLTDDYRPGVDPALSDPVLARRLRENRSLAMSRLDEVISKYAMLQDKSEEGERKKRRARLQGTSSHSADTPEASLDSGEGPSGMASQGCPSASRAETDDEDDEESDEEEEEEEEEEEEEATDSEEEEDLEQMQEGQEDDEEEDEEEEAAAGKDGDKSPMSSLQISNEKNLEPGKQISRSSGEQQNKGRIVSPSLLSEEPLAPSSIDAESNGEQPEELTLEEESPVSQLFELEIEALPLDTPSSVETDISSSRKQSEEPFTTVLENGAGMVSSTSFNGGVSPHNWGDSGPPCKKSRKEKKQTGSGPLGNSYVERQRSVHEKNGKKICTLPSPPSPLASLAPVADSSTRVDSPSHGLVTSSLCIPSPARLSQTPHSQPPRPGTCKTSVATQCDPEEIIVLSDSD
UniProt Q9QR71: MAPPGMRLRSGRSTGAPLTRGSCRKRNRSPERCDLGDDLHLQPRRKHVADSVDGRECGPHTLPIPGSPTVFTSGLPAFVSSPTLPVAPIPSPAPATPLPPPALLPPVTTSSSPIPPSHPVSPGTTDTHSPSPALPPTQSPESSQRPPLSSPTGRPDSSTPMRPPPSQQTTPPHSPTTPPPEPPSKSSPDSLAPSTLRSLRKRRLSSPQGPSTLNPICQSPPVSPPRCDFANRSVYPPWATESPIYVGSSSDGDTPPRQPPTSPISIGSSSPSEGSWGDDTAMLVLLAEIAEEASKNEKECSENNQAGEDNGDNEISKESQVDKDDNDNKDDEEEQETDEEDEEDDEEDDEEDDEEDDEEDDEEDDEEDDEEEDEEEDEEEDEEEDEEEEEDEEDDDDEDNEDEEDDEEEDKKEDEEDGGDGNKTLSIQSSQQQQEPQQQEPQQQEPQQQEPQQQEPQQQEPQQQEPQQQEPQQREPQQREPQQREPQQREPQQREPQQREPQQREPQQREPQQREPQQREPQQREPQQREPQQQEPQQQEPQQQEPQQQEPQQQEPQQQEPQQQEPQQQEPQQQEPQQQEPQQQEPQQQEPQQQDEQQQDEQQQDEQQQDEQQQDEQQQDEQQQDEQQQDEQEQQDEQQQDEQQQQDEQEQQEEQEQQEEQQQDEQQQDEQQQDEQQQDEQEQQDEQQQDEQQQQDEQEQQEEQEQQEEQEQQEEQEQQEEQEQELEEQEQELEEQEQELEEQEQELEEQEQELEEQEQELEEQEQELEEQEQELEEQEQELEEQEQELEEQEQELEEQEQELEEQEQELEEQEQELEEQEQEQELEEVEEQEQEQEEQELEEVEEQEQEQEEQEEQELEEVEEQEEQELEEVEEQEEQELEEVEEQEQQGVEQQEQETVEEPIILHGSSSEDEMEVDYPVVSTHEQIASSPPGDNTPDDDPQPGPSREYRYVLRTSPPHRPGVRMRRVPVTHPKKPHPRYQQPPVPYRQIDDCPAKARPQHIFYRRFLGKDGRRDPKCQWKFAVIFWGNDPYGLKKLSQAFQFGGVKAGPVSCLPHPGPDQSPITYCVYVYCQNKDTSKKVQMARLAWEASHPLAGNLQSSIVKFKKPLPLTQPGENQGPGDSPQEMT

For one substance, binding results are on record in PMC7943007.

The test has as its target DAXX (human (endogenous in iSLK)) (UniProt Q9UER7). In words: co-IP; iSLK RFP-LANA cells, untreated (DMSO control) or treated with 3.5% 1,6-Hexanediol for 1 hr; lysis in 20 mM Tris pH 7.5, 137 mM KCl, 1 mM EDTA, 1.5 mM MgCl2, 10% glycerol, 1% Triton X-100; IP with antibodies to LANA, DAXX or control IgG at 4 C overnight; washes BC200 and BC100; Western blot.

As for “RFP-LANA (KSHV latency-associated nuclear antigen, expressed from KSHV BAC16) (from UniProt Q9QR71 1-1129)”, the binding entry is “binds”.
